Experimental data as given in patent publication US7858621B2 (Amorepacific Corporation, priority 2006, dated 2010).
The match of structure and compound is tentative.

Protein sequences, listed by entry. Tags and fused reporters are not part of them.
UniProt O35433, whole entry: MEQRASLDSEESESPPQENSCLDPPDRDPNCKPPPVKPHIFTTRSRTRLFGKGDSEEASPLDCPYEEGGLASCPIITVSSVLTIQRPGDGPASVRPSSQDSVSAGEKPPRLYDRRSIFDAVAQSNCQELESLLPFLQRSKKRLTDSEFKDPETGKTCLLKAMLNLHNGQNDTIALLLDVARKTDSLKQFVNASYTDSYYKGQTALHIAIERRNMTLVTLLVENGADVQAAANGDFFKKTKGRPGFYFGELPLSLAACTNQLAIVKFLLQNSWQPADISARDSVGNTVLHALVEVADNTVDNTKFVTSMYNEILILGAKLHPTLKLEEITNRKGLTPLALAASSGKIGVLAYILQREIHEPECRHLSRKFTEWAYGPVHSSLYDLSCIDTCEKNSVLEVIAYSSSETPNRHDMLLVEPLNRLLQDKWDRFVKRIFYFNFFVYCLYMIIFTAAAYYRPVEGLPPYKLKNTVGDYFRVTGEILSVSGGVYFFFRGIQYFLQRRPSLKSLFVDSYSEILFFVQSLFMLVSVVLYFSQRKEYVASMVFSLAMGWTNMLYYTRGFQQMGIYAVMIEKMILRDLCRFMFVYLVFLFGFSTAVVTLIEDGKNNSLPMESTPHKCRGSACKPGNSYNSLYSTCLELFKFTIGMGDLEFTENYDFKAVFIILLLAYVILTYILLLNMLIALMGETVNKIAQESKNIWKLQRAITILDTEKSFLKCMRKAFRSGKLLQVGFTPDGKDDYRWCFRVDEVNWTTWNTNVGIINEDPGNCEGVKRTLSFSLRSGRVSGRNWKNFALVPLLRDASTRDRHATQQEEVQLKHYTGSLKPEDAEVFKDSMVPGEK

Molecular target: vanilloid receptor (Rattus norvegicus, UniProt O35433)
Test: 45Ca influx test in cultured neonatal rat DRG neurons, inhibition of capsaicin response
Format: cell-based
Conditions: read-out: Antagonist Calcium Uptake Test (IC50), capsaicin 0.5 μM

CN(C)c1nc(C(F)(F)F)ccc1/C=C/C(=O)NCc1cc(F)c(NS(C)(=O)=O)c(C#N)c1
IC50: 1600 nM
